Measurements taken from the supplement of paper PMC10849652.
This is one part of the list.

Sequences of proteins named here, by UniProt entry; tags and fusion partners are left off. A change or cut given only in a name is not applied to a line headed by its entry.
UniProt Q9Y256: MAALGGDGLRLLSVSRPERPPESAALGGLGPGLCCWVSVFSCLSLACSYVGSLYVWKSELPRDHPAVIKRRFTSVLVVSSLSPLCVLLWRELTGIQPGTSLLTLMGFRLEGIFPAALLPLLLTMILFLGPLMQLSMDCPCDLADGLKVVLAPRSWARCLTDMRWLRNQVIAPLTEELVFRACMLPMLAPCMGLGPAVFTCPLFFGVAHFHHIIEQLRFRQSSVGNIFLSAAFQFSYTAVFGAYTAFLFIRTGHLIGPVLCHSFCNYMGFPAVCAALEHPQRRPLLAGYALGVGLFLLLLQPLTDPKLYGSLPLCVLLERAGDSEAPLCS
UniProt Q5XPI4: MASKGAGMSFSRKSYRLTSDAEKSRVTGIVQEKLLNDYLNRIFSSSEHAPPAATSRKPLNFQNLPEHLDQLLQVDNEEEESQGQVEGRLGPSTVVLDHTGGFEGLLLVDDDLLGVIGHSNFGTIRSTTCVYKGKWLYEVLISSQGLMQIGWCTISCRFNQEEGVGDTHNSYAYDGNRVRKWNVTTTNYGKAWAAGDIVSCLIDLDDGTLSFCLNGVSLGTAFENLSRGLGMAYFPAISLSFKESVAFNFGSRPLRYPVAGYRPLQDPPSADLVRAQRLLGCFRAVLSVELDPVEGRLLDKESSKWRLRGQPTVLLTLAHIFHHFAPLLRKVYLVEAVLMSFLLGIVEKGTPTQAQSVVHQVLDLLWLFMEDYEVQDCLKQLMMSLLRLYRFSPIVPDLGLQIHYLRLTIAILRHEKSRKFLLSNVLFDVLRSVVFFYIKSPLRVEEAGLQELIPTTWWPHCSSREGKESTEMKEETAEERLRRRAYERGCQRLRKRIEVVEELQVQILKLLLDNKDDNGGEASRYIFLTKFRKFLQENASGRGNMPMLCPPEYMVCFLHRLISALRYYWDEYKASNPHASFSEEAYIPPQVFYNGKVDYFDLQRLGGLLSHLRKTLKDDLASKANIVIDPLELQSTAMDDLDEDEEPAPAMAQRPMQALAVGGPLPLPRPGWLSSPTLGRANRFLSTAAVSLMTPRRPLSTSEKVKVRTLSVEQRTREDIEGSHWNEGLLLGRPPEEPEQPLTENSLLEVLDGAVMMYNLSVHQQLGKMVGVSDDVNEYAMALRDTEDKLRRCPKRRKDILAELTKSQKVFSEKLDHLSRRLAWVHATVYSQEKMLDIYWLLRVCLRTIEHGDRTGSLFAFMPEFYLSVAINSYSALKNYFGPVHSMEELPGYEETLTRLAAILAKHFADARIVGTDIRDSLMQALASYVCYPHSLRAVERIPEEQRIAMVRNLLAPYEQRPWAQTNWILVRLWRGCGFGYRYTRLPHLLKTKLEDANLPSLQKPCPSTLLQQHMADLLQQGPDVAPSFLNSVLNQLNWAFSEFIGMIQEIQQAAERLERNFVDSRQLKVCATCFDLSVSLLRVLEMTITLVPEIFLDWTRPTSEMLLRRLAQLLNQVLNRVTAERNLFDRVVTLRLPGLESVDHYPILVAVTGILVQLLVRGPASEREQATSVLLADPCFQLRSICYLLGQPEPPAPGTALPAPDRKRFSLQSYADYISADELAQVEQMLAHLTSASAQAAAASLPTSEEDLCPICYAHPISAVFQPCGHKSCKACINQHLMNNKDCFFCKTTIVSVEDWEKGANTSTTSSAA
UniProt Q9NPQ8: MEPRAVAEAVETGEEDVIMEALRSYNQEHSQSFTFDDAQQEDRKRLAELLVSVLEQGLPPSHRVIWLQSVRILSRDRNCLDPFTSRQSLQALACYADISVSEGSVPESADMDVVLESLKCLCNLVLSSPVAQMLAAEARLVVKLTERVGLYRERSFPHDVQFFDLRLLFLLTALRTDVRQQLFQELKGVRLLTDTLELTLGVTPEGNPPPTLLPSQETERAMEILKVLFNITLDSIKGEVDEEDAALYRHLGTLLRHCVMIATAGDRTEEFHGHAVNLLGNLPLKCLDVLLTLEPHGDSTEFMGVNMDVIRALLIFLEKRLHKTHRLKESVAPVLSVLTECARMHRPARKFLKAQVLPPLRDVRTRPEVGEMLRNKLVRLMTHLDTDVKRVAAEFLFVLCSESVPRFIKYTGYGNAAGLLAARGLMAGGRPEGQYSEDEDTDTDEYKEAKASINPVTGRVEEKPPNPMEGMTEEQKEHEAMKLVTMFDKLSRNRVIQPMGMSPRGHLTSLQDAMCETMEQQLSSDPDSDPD
UniProt Q6NUM9: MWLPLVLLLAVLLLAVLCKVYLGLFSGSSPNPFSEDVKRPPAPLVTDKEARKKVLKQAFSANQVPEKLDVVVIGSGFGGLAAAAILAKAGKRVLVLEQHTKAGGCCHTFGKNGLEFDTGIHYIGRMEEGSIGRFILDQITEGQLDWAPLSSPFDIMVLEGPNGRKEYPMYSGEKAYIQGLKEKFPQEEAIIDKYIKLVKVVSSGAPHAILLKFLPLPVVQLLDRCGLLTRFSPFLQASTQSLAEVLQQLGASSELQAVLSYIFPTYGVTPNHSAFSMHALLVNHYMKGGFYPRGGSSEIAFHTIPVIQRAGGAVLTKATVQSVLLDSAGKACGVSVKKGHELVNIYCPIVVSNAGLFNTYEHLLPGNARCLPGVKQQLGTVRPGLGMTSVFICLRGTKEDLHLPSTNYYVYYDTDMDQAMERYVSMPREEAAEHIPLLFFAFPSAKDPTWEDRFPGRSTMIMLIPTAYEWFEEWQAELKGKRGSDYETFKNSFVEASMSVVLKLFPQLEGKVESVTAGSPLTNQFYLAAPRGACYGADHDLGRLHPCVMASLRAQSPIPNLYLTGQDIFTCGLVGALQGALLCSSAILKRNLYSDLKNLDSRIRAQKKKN
UniProt Q96DB5: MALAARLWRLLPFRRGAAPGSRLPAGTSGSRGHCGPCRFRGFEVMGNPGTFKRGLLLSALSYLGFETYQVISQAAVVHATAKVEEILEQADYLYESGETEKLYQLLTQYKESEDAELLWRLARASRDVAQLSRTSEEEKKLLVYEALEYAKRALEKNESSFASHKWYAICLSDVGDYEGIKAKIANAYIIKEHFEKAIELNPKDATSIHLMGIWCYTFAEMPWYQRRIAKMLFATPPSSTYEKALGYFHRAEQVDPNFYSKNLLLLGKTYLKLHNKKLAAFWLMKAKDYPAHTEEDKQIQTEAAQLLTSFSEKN
UniProt P40938, whole entry, looked up: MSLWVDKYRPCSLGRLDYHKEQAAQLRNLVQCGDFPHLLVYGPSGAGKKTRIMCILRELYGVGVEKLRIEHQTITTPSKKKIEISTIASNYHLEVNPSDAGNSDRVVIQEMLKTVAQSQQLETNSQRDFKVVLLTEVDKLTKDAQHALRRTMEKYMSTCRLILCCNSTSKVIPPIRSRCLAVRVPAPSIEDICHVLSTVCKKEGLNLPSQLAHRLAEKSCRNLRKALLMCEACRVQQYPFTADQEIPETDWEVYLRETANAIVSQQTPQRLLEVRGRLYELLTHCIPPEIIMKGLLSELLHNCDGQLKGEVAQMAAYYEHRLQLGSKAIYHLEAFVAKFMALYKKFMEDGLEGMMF
UniProt P48382: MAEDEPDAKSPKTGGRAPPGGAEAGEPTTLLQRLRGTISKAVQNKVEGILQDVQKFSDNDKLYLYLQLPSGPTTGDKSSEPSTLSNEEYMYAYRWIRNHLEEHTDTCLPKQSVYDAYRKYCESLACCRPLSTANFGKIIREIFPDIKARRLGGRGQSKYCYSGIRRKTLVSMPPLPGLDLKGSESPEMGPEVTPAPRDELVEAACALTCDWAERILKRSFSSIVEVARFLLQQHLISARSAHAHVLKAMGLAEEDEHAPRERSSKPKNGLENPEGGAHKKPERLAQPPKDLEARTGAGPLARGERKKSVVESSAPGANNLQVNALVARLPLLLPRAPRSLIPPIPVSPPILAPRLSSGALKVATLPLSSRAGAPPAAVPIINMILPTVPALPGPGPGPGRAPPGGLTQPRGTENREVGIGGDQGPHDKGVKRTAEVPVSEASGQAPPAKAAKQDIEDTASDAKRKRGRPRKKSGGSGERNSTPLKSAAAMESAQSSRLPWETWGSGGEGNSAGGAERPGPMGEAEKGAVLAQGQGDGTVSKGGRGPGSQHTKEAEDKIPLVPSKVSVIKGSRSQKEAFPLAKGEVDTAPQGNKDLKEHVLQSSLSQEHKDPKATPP
UniProt Q8TDP1: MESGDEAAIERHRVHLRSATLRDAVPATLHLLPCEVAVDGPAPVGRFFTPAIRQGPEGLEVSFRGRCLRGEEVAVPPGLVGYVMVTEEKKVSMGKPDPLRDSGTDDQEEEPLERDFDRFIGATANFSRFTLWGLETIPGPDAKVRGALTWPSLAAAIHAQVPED
UniProt Q8WZ73: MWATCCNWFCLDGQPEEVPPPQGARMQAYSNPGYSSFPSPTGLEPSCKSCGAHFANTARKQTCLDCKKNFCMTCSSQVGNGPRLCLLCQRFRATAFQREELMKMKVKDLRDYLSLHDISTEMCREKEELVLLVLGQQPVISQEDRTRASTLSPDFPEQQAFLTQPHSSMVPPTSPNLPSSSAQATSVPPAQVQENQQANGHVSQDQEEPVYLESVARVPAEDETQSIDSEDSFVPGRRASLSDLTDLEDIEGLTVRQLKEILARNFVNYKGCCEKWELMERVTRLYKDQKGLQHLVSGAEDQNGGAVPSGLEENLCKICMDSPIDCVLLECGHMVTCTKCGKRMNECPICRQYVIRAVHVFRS
UniProt Q9UBS8: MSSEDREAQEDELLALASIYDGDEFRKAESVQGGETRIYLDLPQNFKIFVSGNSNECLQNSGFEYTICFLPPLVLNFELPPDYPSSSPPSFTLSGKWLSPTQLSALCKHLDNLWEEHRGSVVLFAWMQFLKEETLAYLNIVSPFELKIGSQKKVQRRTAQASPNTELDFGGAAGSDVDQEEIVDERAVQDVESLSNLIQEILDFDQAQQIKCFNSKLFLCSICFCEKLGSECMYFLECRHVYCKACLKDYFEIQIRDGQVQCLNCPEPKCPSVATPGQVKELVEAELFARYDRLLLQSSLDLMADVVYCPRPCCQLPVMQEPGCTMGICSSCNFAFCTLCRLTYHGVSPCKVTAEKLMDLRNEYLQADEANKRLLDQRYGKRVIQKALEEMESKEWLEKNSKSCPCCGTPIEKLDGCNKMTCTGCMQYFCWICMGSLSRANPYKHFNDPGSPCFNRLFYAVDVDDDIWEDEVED
UniProt Q9BV68: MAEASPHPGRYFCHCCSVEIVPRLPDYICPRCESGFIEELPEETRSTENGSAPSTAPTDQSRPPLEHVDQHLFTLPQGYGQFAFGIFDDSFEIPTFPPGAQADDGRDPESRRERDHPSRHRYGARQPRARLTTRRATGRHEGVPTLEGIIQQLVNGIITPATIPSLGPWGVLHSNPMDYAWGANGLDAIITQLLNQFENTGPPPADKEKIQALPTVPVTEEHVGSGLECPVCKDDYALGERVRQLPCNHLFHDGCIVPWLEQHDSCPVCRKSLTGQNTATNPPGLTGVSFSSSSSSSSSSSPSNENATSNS
UniProt Q6NUK4: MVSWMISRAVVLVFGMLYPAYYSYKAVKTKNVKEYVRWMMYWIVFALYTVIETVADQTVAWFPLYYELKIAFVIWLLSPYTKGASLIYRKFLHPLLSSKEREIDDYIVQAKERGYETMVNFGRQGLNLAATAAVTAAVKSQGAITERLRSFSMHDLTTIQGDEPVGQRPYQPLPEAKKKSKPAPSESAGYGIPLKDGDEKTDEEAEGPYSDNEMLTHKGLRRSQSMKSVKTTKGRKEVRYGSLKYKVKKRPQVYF
UniProt Q5RL73: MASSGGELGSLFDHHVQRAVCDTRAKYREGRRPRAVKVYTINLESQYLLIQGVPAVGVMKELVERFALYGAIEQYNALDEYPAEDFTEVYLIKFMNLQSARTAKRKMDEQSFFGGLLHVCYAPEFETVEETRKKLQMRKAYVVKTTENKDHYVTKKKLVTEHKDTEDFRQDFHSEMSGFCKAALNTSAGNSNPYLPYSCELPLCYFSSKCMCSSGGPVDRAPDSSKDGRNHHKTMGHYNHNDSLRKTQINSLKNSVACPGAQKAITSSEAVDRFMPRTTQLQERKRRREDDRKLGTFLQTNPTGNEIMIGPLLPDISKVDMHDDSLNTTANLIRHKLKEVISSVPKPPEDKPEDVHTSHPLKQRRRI
UniProt P62877, whole entry, looked up: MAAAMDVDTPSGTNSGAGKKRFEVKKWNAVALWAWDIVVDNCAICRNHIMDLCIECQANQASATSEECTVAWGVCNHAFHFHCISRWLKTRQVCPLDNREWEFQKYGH
UniProt Q969G6: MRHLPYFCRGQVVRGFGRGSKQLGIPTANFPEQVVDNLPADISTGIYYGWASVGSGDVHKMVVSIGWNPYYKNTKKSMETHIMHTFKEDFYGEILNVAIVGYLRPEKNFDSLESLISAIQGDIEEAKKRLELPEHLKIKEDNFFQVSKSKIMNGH
UniProt Q8NBN7: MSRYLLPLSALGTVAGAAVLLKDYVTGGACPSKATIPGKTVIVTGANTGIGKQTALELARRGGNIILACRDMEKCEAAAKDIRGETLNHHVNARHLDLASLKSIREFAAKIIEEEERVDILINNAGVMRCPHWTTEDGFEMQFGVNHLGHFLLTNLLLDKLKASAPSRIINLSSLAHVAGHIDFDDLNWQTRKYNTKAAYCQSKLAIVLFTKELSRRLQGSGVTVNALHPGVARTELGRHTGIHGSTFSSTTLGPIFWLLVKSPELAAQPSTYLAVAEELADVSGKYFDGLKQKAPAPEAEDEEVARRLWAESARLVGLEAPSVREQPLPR

Tests used:
Test in all cases: log2 fold change, soluble protein after heating vs DMSO (PISA); higher = thermal stabilisation; K562 cells, 10 uM, 30 min; active = over 0.2 and 3.5 SD of the protein, either way, in both replicates (recomputed)
erlotinib = compound: C#Cc1cccc(Nc2ncnc3cc(OCCOC)c(OCCOC)cc23)c1 [erlotinib]
Outline: (§1)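 Thermal stability values are relative to control samples and come from duplicates. They are expressed as log2 fold changes. For measurement, K562 cells (2×10^6 cells/mL) received 10 μM compound for 30 min, and aliquots were heated for 3 min over 48°C-58°C, pooled, and extracted at 4°C in PBS with 0.5% NP-40. Soluble protein, the supernatant after 21,000xg for 90 min, was quantified by TMTpro 16plex LC-MS/MS with equalised channel sums.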

[1] = compound: C/C(=N\NC(=O)C1=CC(=CC=C1)S(=O)(=O)N2CCOCC2)/C3=C(C=CC(=C3)Cl)O
Outline: as §1

[2] = compound: C1=CC(=C(C=C1Cl)C2=NC3=NC=CN=C3C(=N2)NC4=CC=NC=C4)F
Outline: as §1

[3] = compound: C1=CC(=CC=C1C2=NC3=C(N2)C=C(C=C3)C(=O)N)OC4=CC=C(C=C4)Cl
Outline: as §1

[4] = compound: C1=CC2=C(C=CC(=C2)/C=C\3/C(=O)NC(=NCC4=CC=CS4)S3)N=C1
Outline: as §1

[5] = compound: C1=CC2=NC=CN=C2C=C1/C=C/3\C(=O)NC(=O)S3
Outline: as §1

[6] = compound: C1=CC=C(C=C1)C2=NC(=C(N2)C3=CC=NC=C3)C4=CC(=C(C=C4)Cl)O
Outline: as §1

[7] = compound: C1=CC=C2C(=C1)C3=NNC4=CC=CC(=C43)C2=O
Outline: as §1

[8] = compound: C1CCN(C1)C(=O)NC2=CC=CC(=C2)NC3=NC=C(C(=N3)NCCC4=CN=CN4)Br
Outline: as §1

[9] = compound: C1CN(CCC1(CC2=CC=C(C=C2)Cl)N)C3=NC=NC4=C3C=CN4
Outline: as §1

Measured: log2 fold change

RCE1 (UniProt Q9Y256)
inactive: erlotinib 0.02 | [1] 0.036 | [2] 0.003 | [3] -0.057 | [4] 0.054 | [5] 0.081 | [6] 0.148 | [7] 0.03 | [8] -0.157 | [9] 0.149

RNF123 isoform 2 (UniProt Q5XPI4)
inactive: erlotinib 0.076 | [1] 0.003 | [2] 0.039 | [3] -0.025 | [4] 0.029 | [5] 0.033 | [6] -0.04 | [7] -0.017 | [8] 0.012 | [9] 0.025

RIC8A isoform 3 (UniProt Q9NPQ8)
inactive: erlotinib 0.063 | [1] 0.114 | [2] 0 | [3] -0.031 | [4] 0.114 | [5] -0.052 | [6] 0.005 | [7] -0.021 | [8] -0.071 | [9] -0.057

RETSAT (UniProt Q6NUM9)
inactive: erlotinib 0.044 | [1] -0.149 | [2] 0.132 | [4] 0.052 | [5] 0.002 | [6] 0.056 | [7] 0.144 | [8] -0.126 | [9] 0.194
active: [3] 0.502

RMDN1 (UniProt Q96DB5)
inactive: erlotinib 0.208 | [1] 0.066 | [2] 0.032 | [3] 0.01 | [4] 0.149 | [5] 0.001 | [6] 0.106 | [7] 0.019 | [8] 0.005 | [9] 0.032

RBM8A (UniProt Q9Y5S9)
inactive: erlotinib -0.021 | [1] -0.014 | [2] 0.012 | [3] -0.008 | [4] -0.076 | [5] 0.024 | [6] -0.069 | [7] -0.035 | [8] 0.025 | [9] 0.003

RFC3 (UniProt P40938)
inactive: erlotinib -0.04 | [1] 0.108 | [2] 0.033 | [3] 0.005 | [4] 0.066 | [5] 0.007 | [6] 0.046 | [7] 0.046 | [8] -0.06 | [9] 0.054

RFX5 (UniProt P48382)
inactive: erlotinib 0.047 | [1] 0.115 | [2] 0.294 | [3] 0.078 | [4] -0.119 | [5] 0.045 | [6] -0.052 | [7] -0.049

RINT1 (UniProt Q6NUQ1)
inactive: erlotinib 0.097 | [1] 0.142 | [2] -0.354 | [3] -0.036 | [4] 0.187 | [5] -0.049 | [6] 0.05 | [7] 0.099 | [8] -0.128 | [9] -0.13

RBPJ (UniProt Q06330)
inactive: erlotinib -0.022 | [1] 0.005 | [2] 0.04 | [3] 0.042 | [4] -0.006 | [5] 0.025 | [6] -0.028 | [7] -0.025 | [8] 0.02 | [9] 0.063

RNASEH2C (UniProt Q8TDP1)
inactive: erlotinib 0.012 | [1] 0.193 | [2] 0.051 | [3] 0.008 | [4] 0.152 | [5] -0.028 | [6] 0.006 | [7] 0.034 | [8] -0.058 | [9] -0.031

RFFL (UniProt Q8WZ73)
inactive: erlotinib -0.044 | [1] 0.094 | [2] 0.112 | [3] -0.003 | [4] 0.036 | [5] 0.023 | [6] 0.057 | [7] -0.083 | [8] -0.004 | [9] -0.046

RNF14 (UniProt Q9UBS8)
inactive: erlotinib -0.006 | [1] 0.038 | [2] 0.048 | [3] 0.043 | [4] 0.015 | [5] -0.019 | [6] 0.014 | [7] -0.029 | [8] 0.002 | [9] 0.071

RNF220 (UniProt Q5VTB9)
inactive: erlotinib 0.017 | [1] 0.034 | [2] 0.017 | [3] 0.011 | [4] 0.034 | [5] 0.03 | [6] 0.026 | [7] 0.011 | [8] -0.008 | [9] -0.022

Quoted from the results shown (2 entries):
RBPJ (UniProt Q06330)
inactive: erlotinib -0.022 | [1] 0.005 | [2] 0.04 | [3] 0.042 | [4] -0.006 | [5] 0.025 | [6] -0.028 | [7] -0.025 | [8] 0.02 | [9] 0.063

RNASEH2C (UniProt Q8TDP1)
inactive: erlotinib 0.012 | [1] 0.193 | [2] 0.051 | [3] 0.008 | [4] 0.152 | [5] -0.028 | [6] 0.006 | [7] 0.034 | [8] -0.058 | [9] -0.031

Following part.

RNF126 (UniProt Q9BV68)
inactive: erlotinib 0.006 | [1] -0.056 | [2] 0.021 | [3] -0.016 | [4] 0.056 | [5] 0.005 | [6] -0.026 | [7] 0.002 | [8] -0.04 | [9] 0.035

RHEB (UniProt Q15382)
inactive: erlotinib 0.028 | [1] 0.042 | [2] 0.075 | [3] -0.041 | [4] 0.008 | [5] 0.008 | [6] -0.008 | [7] -0.004 | [8] -0.005 | [9] 0.041

RIDA (UniProt P52758)
inactive: erlotinib -0.027 | [1] 0.04 | [2] 0.073 | [3] 0.002 | [4] 0.007 | [5] 0.042 | [6] 0.041 | [7] -0.049 | [8] -0.001 | [9] 0.046

RNASEH2A (UniProt O75792)
inactive: erlotinib 0.041 | [1] 0.085 | [2] -0.062 | [3] 0.019 | [4] 0.119 | [5] -0.038 | [6] -0.026 | [7] 0.065 | [8] -0.016 | [9] -0.115

RENBP (UniProt P51606)
inactive: erlotinib -0.009 | [1] -0.001 | [2] 0.045 | [3] 0.016 | [4] 0.02 | [5] 0.02 | [6] -0.042 | [7] -0.025 | [8] -0.004 | [9] -0.014

RFX1 (UniProt P22670)
inactive: erlotinib -0.053 | [1] 0.05 | [2] 0.117 | [3] 0.01 | [4] -0.015 | [5] 0.042 | [6] -0.063 | [7] 0.03 | [8] -0.018 | [9] -0.03

REEP3 (UniProt Q6NUK4)
inactive: erlotinib 0.068 | [1] 0.141 | [2] -0.071 | [3] -0.004 | [4] -0.062 | [5] 0.091 | [6] -0.169 | [7] -0.05 | [8] -0.111 | [9] -0.068

RDH11 (UniProt Q8TC12)
inactive: erlotinib -0.007 | [1] -0.03 | [2] 0.102 | [3] 0.068 | [4] 0.084 | [5] -0.1 | [6] 0.029 | [7] 0.04 | [8] -0.044 | [9] -0.043

RNASEH2B (UniProt Q5TBB1)
inactive: erlotinib 0.15 | [1] 0.094 | [2] 0.087 | [3] -0.044 | [4] 0.126 | [5] -0.008 | [6] 0.099 | [7] 0.053 | [8] -0.041 | [9] -0.024

RBM48 isoform 2 (UniProt Q5RL73)
inactive: erlotinib -0.048 | [1] 0.017 | [2] -0.065 | [3] -0.026 | [4] 0.053 | [5] 0.055 | [6] -0.144 | [7] 0.042 | [8] 0.118 | [9] -0.115

RELN (UniProt P78509)
inactive: erlotinib -0.054 | [1] -0.097 | [2] -0.021 | [3] 0.088 | [4] 0.104 | [5] -0.06 | [6] -0.01 | [7] -0.024 | [8] -0.016 | [9] 0.08

REL (UniProt Q04864)
inactive: erlotinib 0.076 | [1] -0.013 | [2] -0.007 | [3] 0.003 | [4] 0.024 | [5] -0.037 | [6] -0.029 | [7] -0.013 | [8] -0.082 | [9] 0.01

RBX1 (UniProt P62877)
inactive: erlotinib -0.005 | [1] 0.002 | [2] 0.08 | [3] -0.145 | [4] 0.048 | [5] 0.089 | [6] -0.095 | [7] -0.03 | [8] 0.014 | [9] 0.137

RFK (UniProt Q969G6)
inactive: erlotinib -0.034 | [1] -0.023 | [2] -0.026 | [3] 0 | [4] -0.055 | [5] 0.02 | [6] 0.046 | [7] 0.064 | [8] -0.01 | [9] 0.045

RDH13 (UniProt Q8NBN7)
inactive: erlotinib 0.019 | [1] -0.004 | [2] 0.082 | [3] 0.01 | [4] 0.127 | [5] -0.024 | [6] 0.005 | [7] 0.007 | [8] 0.05 | [9] 0.007

RNF146 (UniProt Q9NTX7)
inactive: erlotinib -0.03 | [1] 0.025 | [2] 0.093 | [3] 0.01 | [4] -0.054 | [5] 0 | [6] -0.155 | [7] -0.111 | [8] -0.03 | [9] 0.03
